# Results of single-concentration screens

Sequences of proteins named here, by UniProt entry; tags and fusion partners are left off. Residues count along the entry.
UniProt Q4DA54, 1-478: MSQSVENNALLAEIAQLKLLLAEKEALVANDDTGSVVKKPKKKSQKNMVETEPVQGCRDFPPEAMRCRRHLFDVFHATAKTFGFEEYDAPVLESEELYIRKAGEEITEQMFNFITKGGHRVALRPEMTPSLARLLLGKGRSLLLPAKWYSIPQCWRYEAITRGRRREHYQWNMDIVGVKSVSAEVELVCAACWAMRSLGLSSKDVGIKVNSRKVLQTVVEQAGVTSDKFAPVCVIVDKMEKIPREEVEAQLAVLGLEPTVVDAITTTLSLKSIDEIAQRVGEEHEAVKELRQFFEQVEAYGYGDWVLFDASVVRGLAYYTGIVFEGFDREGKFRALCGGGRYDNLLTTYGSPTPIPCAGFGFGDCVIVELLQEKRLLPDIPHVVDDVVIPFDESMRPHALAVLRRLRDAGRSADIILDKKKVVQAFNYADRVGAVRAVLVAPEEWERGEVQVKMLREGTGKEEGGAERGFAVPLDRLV
UniProt I6X8D2, whole entry: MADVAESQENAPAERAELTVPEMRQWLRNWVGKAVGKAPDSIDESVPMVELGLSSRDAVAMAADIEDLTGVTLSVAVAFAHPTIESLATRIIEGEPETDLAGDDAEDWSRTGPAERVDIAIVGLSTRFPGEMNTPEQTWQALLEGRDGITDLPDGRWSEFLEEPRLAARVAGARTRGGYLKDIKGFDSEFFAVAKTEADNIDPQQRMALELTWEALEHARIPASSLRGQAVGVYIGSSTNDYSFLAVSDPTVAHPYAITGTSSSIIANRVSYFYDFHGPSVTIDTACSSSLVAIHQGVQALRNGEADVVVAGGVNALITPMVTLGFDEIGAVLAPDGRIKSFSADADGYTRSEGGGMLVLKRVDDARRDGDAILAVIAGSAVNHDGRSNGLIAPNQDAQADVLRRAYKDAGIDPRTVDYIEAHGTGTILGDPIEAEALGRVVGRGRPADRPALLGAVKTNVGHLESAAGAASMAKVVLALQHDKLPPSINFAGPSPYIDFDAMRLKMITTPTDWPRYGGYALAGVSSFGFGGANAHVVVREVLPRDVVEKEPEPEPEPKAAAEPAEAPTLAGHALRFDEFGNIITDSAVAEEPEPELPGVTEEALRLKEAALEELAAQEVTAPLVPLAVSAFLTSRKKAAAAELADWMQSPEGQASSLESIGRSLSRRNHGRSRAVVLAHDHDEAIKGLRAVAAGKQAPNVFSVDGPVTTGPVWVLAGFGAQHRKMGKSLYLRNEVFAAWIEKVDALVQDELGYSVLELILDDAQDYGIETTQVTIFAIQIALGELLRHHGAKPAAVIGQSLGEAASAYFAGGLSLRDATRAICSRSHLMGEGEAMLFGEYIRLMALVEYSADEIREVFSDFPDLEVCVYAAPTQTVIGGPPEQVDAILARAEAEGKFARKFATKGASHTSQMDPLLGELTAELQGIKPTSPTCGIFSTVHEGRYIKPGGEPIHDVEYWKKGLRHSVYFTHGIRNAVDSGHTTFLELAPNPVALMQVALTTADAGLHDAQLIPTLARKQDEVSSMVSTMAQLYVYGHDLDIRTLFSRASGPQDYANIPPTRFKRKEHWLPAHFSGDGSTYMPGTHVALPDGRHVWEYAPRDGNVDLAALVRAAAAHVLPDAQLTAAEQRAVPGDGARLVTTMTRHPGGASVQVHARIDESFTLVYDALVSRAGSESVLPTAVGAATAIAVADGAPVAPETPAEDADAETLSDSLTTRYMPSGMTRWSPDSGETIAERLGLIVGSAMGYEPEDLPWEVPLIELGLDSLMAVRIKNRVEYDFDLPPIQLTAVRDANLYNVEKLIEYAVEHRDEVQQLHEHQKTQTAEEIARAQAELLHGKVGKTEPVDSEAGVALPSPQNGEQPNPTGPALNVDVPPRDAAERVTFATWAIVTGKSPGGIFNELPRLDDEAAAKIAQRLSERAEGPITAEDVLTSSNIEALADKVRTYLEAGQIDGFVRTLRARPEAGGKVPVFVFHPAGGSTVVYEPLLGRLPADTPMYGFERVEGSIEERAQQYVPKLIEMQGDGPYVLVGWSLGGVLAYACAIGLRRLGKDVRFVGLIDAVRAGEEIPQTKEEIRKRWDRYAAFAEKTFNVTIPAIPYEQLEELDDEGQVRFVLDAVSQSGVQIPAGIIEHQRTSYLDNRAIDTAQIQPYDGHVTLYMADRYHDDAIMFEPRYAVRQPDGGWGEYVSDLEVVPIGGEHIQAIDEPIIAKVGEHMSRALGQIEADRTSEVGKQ
UniProt P9WNZ1, whole entry: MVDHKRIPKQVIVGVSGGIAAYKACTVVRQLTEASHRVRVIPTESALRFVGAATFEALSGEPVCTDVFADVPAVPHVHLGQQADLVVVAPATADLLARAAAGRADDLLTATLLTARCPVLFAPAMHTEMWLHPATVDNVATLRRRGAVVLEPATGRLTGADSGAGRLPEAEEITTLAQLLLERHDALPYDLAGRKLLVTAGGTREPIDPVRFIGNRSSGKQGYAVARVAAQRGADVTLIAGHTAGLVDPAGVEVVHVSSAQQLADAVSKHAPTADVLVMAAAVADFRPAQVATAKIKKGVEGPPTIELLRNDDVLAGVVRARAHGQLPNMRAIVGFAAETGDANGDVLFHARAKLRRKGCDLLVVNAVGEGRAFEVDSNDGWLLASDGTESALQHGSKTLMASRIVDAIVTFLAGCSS
UniProt Q8IDJ8, 1-583: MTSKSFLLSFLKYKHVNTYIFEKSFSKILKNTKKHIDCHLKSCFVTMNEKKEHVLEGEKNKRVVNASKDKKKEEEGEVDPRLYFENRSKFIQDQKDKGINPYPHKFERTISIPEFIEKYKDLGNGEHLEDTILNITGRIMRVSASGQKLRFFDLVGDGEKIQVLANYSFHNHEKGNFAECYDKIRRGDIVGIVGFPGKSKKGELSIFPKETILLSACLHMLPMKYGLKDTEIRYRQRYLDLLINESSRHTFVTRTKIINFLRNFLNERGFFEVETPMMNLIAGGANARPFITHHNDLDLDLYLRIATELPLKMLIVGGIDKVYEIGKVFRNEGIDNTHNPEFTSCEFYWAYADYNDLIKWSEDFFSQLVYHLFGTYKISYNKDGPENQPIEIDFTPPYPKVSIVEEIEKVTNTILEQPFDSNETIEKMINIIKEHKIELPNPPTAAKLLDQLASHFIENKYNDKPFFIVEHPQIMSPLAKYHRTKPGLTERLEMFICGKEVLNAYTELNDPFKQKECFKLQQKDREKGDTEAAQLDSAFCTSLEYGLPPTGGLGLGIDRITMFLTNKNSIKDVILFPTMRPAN
UniProt P9WFT3, whole entry: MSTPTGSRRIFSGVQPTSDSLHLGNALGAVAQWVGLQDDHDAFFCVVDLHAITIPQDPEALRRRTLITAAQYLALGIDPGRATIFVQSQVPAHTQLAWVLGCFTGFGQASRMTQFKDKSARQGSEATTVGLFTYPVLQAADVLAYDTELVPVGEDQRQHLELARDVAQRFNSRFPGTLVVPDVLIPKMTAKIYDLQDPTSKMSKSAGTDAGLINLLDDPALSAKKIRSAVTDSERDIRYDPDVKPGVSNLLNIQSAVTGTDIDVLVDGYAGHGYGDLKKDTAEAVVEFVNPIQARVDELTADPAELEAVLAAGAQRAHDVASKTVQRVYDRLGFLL

Data taken from ChEMBL document CHEMBL3988442, “University of Dundee, Small-Polar-MMV Screening Library” (2021).

TcHisRS: 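Enzyme assay of histidyl-tRNA synthetase; the read-out is not stated. Target: Histidine-tRNA ligase, Trypanosoma cruzi CL Brener (UniProt Q4DA54). Concentration: 30 µM. Direction is inferred from retests: higher values go with stronger inhibition. Of about 69,000 compounds tested this way, about 31 (0.045%) reached 50% or more in at least one test.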
Pks13 thioesterase: 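Enzyme assay of the thioesterase domain of polyketide synthase 13; the read-out is not stated. Target: Polyketide synthase Pks13, Mycobacterium tuberculosis (UniProt I6X8D2). Compounds at 30 µM. The record gives no direction; the compounds picked for IC50 retests had high values, so higher reads as stronger inhibition. Size under these conditions: about 67,000 compounds, about 300 of them at 50% or above in at least one test.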
CoaBC: 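Coenzyme A biosynthesis protein CoaBC, Mycobacterium tuberculosis (UniProt P9WNZ1). Enzyme assay of CoaBC with a phosphate dye (Biomol Green) read at 650 nm. Concentration: 30 µM. Higher reads as stronger inhibition, judged from the few compounds that gave an IC50. Most strong results did not repeat in a second test. About 67,000 compounds were tested under these conditions; 0.06% (about 40) showed 50% or more at least once.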
Leishmania in macrophages: 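Cell assay of Leishmania donovani living inside macrophages; the read-out is not stated. Tested at 30 µM. The record gives no direction; compounds that gave an IC50 in retests scored well above the rest, so higher reads as stronger inhibition. Of about 69,000 compounds tested this way, about 1,000 (1.5%) reached 50% or more in at least one test.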
PfKRS1: 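Enzyme assay of the cytosolic lysyl-tRNA synthetase in 384-well plates, read by luminescence. Target: Lysine-tRNA ligase, Plasmodium falciparum 3D7 (UniProt Q8IDJ8). Tested at 30 µM. Higher reads as stronger inhibition, judged from the few compounds that gave an IC50. About 69,000 compounds were tested under these conditions; 0.071% (about 49) showed 50% or more at least once.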
MtTrpRS: 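Tryptophan-tRNA ligase, Mycobacterium tuberculosis (UniProt P9WFT3). Enzyme assay of tryptophanyl-tRNA synthetase; the read-out is not stated. Compounds at 10 µM. Higher most likely means stronger inhibition; the record gives no direction and few retests gave an IC50. Size under these conditions: about 65,000 compounds, about 64 of them at 50% or above in at least one test.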

Each number is a percent effect as filed.
The record does not define 0% and 100%; most values in the screen are far below 50% and negative numbers occur (in some assays of this library far below -100).
The compounds are a random part of those screened.
Two or more numbers in one place are separate tests of the same structure; such repeats can differ widely.

- Cc1ncc(C(=O)N2CCCC(Cc3nccs3)C2)cn1 (centres undefined) : TcHisRS: -2.26%; CoaBC: 1.566%; Leishmania in macrophages: 28.11% and 6.101%; PfKRS1: 3.04%
- COCCN1CC(=O)N2CC[C@@H](O)C[C@H]2C1=O : TcHisRS: 9.045%; Pks13 thioesterase: 7.827%; CoaBC: -0.3236%; PfKRS1: -2.529%; MtTrpRS: -0.757%
- CC(=O)N1CCN(C(=O)CN2CCCC2c2c(C)nn(C)c2C)CC1 (centres undefined) : TcHisRS: -1.327%; Pks13 thioesterase: -18.72%; CoaBC: 5.374%; Leishmania in macrophages: -12.31%; PfKRS1: 1.272%; MtTrpRS: -0.8541%
- Cc1cc(C(=O)N2CCCC(c3cc(C(F)(F)F)[nH]n3)C2)[nH]n1 (centres undefined) : TcHisRS: 2.339%; Pks13 thioesterase: -7.627%; CoaBC: 8.418%; Leishmania in macrophages: 27.81%; PfKRS1: 1.318%; MtTrpRS: 3.011%
- COc1ccc(CN2C[C@@H]3OCCN(CCN(C)C)[C@@H]3C2)cc1 : TcHisRS: 10.92%; Pks13 thioesterase: -16.55%; CoaBC: -26.57%; PfKRS1: 1.935%; MtTrpRS: -1.604%
- CCNc1ncc(C2CC(=O)Nc3c2cnn3Cc2ccncc2)cn1 (centres undefined) : TcHisRS: 7.65%; Pks13 thioesterase: -28.12%; CoaBC: 8.068%; Leishmania in macrophages: 13.65%; PfKRS1: 4.47%; MtTrpRS: 3.875%
- Cc1nc(NC(=O)C(C)N2CCN(c3ccccc3F)CC2)sc1C (centres undefined) : TcHisRS: 4.217%; Pks13 thioesterase: -9.542%; CoaBC: 0.3659%; Leishmania in macrophages: 17.81%; PfKRS1: 0.02323%; MtTrpRS: 0.2649%
- CS(=O)(=O)c1cccc(C(=O)NCC2Cc3ccccc3O2)c1 (centres undefined) : TcHisRS: 4.124%; Pks13 thioesterase: -8.058%; CoaBC: -3.667%; Leishmania in macrophages: 19.98%; PfKRS1: 9.383%; MtTrpRS: -6.5%
- [H][C@@]12CS(=O)(=O)C[C@]1([H])N(C(=O)c1cnccn1)CCN2CCC : Leishmania in macrophages: -0.9274%
- NC(=O)c1cccc(CC2CCN(C(=O)CO)C2)c1 (centres undefined) : TcHisRS: 0.8264%; Pks13 thioesterase: -7.341%; CoaBC: 0.6397%; Leishmania in macrophages: 9.701%; PfKRS1: -0.6144%; MtTrpRS: -1.497%
- CC(C)c1n[nH]c(C(=O)NC(C)c2ccncc2)c1Br (centres undefined) : TcHisRS: 0.5814%; Pks13 thioesterase: 2.052%; CoaBC: 21.13% and 24.56%; Leishmania in macrophages: 13.54%; PfKRS1: -2.39%; MtTrpRS: 2.12%
- COC[C@]1(O)CCN(C2CCN(c3ccc(F)c(F)c3)CC2)CC1(C)C : TcHisRS: 5.263%; Pks13 thioesterase: -8.071%; CoaBC: -1.11%; Leishmania in macrophages: 3.958%; PfKRS1: -6.93%; MtTrpRS: -3.754%
- c1ccc(-c2noc(CCNC3CCOC4(CCOCC4)C3)n2)nc1 (centres undefined) : TcHisRS: 4.972%; Pks13 thioesterase: -18.3%; CoaBC: 10.68%; Leishmania in macrophages: 9.047%; PfKRS1: 4.51%; MtTrpRS: -4.706%
- COC1COC2(CCN(Cc3ccc(Cl)cc3)CC2)C1 (centres undefined) : TcHisRS: 3.659%; Pks13 thioesterase: -5.154%; CoaBC: 0.2506%; PfKRS1: -4.565%; MtTrpRS: 0.9682%
- CC(C)c1nc(CN(C)C(=O)CCNC(=O)c2ccccc2F)no1 : TcHisRS: 9.639%; Pks13 thioesterase: -15.91%; CoaBC: 6.931%; Leishmania in macrophages: 8.197%; PfKRS1: -1.673%; MtTrpRS: -1.867%
- [H][C@@]12C[C@@H](OCc3ccccc3)C[C@]1([H])CN(C(=O)C1CCOCC1)C2 : Leishmania in macrophages: -1.976%
- O=C(Nc1cccn(CC(F)(F)F)c1=O)c1ccncc1F : TcHisRS: 6.494%; Pks13 thioesterase: -34.02%; Leishmania in macrophages: 8.997%; PfKRS1: 0.06026%; MtTrpRS: 0.3096%
- CC(Cn1cccn1)NC(=O)NCc1ccoc1 (centres undefined) : TcHisRS: 3.207%; Pks13 thioesterase: -12.06%; CoaBC: 4.7%; Leishmania in macrophages: 1.685%; PfKRS1: -0.08128%; MtTrpRS: -5.016%
- O=C(Cn1cccc2oc(=O)nc1-2)NCC1Cc2ccccc2O1 (centres undefined) : TcHisRS: -4.211%; Pks13 thioesterase: -18.36%; CoaBC: -1.195%; Leishmania in macrophages: 10.79%; PfKRS1: 6.694%; MtTrpRS: -4.107%

Repeated from the top, 2 entries:

* Cc1ncc(C(=O)N2CCCC(Cc3nccs3)C2)cn1 (centres undefined) | TcHisRS: -2.26%; CoaBC: 1.566%; Leishmania in macrophages: 28.11% and 6.101%; PfKRS1: 3.04%
* COCCN1CC(=O)N2CC[C@@H](O)C[C@H]2C1=O | TcHisRS: 9.045%; Pks13 thioesterase: 7.827%; CoaBC: -0.3236%; PfKRS1: -2.529%; MtTrpRS: -0.757%